Measurements reported in article PMC12173456.
Results are given in words; binding and its absence hold for the method and conditions named. In cells and extracts the contact can be indirect. Some results given as binding are weak or reduced against the parent protein; the word gives no strength.

Amino acid sequences for entries named in this document (tags omitted). Residues count along the entry.
UniProt P35951, residues 22-862: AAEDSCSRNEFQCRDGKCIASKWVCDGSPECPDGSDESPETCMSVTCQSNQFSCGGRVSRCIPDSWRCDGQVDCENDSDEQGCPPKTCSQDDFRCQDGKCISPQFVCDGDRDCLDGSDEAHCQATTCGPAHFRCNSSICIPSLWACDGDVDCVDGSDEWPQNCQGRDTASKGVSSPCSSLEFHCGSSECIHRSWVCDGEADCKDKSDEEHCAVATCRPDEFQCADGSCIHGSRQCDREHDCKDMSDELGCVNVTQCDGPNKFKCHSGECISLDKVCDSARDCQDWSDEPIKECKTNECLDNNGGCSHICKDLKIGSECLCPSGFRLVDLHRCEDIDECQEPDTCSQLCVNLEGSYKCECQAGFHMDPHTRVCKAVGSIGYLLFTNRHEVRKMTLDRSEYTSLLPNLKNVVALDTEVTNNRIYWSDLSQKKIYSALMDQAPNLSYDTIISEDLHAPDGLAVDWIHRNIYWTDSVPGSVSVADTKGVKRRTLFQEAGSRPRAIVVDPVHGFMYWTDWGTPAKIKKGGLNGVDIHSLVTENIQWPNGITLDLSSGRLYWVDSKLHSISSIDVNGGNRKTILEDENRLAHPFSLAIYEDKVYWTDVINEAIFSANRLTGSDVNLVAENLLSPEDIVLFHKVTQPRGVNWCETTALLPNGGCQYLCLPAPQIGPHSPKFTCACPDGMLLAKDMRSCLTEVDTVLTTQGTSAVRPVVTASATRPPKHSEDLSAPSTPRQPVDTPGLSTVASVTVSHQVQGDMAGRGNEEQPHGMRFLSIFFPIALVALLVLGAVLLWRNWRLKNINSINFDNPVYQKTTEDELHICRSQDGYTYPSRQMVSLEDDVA
UniProt Q91ZX7, residues 20-4545: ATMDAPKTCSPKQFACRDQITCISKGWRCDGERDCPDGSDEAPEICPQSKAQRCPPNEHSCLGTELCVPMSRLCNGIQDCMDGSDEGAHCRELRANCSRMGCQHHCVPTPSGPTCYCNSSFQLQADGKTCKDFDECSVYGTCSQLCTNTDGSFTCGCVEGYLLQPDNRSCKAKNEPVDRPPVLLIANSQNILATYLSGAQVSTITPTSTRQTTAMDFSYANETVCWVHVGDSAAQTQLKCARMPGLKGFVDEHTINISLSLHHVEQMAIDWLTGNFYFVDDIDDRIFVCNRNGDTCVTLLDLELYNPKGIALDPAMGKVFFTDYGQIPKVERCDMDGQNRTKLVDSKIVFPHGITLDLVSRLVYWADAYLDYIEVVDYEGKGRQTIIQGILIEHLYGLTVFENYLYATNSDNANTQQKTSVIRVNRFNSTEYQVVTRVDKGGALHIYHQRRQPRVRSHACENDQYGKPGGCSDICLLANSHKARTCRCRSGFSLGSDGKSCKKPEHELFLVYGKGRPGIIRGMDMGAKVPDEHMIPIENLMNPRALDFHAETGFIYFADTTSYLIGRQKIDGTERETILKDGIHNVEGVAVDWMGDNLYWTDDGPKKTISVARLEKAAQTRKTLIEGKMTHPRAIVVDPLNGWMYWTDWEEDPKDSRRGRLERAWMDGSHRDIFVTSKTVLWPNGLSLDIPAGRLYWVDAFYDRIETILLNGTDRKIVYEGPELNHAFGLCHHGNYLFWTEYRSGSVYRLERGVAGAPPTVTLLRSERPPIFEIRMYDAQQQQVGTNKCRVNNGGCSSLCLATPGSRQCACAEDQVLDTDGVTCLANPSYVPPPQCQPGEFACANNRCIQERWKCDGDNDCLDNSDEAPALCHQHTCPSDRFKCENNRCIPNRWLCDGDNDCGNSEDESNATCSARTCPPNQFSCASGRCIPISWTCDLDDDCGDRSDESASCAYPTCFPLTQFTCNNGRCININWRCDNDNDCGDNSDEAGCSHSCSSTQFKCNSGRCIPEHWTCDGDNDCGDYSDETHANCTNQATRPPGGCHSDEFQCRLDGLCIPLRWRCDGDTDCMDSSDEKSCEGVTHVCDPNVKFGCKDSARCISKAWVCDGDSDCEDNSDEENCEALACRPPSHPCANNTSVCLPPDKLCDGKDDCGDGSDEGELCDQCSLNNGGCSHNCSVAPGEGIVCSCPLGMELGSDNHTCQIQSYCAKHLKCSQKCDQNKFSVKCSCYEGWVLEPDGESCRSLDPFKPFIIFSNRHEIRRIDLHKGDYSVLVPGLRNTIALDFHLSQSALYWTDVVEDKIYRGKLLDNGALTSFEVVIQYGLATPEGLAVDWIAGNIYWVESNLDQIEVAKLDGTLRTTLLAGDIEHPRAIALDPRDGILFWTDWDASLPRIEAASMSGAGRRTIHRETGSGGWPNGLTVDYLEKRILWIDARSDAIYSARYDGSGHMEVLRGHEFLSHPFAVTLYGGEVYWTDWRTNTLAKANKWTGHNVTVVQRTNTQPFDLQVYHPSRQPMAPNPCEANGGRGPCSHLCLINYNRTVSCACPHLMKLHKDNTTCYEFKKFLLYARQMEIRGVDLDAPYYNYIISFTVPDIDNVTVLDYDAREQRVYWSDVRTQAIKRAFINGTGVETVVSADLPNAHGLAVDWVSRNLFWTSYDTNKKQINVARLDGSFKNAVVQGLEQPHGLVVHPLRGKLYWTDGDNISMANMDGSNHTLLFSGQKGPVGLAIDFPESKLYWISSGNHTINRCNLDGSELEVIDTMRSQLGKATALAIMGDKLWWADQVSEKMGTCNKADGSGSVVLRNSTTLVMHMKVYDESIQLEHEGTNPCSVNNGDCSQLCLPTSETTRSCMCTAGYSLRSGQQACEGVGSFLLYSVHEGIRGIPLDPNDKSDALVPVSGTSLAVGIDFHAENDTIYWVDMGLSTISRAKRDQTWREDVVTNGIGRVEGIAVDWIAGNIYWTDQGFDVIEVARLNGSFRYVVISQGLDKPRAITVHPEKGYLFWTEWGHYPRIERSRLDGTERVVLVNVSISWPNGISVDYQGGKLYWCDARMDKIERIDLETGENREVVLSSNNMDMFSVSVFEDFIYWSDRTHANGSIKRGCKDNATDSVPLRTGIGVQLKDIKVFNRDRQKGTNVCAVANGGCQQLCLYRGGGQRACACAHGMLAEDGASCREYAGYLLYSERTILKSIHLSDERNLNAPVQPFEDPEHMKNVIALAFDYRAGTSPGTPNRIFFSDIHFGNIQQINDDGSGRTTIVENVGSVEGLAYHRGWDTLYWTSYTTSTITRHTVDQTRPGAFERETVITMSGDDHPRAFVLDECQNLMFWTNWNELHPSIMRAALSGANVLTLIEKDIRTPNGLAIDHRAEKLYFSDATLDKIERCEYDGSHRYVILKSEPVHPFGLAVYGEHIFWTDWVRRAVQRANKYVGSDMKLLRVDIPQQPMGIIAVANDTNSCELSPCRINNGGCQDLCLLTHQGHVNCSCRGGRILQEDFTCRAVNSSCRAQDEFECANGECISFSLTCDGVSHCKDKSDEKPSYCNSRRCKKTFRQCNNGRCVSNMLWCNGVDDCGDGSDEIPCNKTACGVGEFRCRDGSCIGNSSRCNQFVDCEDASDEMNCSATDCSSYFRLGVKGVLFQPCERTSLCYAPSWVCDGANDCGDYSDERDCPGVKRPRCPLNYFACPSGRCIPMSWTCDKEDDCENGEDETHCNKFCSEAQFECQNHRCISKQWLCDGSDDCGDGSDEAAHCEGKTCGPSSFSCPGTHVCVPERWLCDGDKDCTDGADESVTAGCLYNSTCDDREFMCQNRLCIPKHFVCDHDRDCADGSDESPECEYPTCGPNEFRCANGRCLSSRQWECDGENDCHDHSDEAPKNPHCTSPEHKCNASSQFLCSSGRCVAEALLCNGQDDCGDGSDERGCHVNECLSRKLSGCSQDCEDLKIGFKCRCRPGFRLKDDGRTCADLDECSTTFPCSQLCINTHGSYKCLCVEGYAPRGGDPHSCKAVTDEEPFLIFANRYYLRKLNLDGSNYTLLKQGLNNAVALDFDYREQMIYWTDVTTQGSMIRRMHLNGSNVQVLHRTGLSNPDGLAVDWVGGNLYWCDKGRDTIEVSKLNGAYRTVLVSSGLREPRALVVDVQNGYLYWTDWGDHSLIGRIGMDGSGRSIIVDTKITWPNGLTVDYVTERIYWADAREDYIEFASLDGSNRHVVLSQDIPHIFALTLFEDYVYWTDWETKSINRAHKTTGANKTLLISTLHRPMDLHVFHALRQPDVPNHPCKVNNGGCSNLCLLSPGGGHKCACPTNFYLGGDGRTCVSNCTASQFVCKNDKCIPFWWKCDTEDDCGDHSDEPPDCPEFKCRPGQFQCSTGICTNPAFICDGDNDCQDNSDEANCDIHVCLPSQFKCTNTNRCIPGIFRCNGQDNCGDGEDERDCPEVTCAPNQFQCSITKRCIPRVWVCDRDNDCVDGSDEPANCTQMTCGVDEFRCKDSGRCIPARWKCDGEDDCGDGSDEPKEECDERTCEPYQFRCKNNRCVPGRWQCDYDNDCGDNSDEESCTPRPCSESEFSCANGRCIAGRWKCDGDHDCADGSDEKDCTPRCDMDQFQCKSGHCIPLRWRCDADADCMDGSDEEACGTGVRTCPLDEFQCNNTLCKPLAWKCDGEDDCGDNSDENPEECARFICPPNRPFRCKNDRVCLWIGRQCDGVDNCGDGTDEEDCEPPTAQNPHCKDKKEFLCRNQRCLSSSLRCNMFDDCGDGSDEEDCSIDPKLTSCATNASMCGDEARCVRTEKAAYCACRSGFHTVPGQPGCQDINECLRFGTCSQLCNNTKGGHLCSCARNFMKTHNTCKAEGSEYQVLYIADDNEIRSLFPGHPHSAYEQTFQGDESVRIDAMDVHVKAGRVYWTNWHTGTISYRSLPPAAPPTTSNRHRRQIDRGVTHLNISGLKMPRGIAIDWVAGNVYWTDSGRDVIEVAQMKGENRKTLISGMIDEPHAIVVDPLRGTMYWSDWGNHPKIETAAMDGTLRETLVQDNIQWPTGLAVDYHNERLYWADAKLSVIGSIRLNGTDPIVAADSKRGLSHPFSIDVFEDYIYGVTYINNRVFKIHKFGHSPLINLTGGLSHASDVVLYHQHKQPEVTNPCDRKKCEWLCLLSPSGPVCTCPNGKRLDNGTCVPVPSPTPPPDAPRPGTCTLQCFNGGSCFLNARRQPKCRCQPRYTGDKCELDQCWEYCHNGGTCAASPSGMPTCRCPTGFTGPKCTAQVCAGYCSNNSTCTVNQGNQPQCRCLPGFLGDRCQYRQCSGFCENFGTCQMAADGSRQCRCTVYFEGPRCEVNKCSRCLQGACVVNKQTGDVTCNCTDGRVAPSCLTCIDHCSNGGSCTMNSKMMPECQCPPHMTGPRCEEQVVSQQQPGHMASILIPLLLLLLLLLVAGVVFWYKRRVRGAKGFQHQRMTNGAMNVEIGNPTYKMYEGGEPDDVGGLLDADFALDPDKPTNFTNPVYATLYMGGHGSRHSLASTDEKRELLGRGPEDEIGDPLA

Molecular target: T1, K+–Cl− cotransporter 2 (KCC2) (mouse (endogenous in hippocampal tissue)) (UniProt Q91V14)
T1 sequence: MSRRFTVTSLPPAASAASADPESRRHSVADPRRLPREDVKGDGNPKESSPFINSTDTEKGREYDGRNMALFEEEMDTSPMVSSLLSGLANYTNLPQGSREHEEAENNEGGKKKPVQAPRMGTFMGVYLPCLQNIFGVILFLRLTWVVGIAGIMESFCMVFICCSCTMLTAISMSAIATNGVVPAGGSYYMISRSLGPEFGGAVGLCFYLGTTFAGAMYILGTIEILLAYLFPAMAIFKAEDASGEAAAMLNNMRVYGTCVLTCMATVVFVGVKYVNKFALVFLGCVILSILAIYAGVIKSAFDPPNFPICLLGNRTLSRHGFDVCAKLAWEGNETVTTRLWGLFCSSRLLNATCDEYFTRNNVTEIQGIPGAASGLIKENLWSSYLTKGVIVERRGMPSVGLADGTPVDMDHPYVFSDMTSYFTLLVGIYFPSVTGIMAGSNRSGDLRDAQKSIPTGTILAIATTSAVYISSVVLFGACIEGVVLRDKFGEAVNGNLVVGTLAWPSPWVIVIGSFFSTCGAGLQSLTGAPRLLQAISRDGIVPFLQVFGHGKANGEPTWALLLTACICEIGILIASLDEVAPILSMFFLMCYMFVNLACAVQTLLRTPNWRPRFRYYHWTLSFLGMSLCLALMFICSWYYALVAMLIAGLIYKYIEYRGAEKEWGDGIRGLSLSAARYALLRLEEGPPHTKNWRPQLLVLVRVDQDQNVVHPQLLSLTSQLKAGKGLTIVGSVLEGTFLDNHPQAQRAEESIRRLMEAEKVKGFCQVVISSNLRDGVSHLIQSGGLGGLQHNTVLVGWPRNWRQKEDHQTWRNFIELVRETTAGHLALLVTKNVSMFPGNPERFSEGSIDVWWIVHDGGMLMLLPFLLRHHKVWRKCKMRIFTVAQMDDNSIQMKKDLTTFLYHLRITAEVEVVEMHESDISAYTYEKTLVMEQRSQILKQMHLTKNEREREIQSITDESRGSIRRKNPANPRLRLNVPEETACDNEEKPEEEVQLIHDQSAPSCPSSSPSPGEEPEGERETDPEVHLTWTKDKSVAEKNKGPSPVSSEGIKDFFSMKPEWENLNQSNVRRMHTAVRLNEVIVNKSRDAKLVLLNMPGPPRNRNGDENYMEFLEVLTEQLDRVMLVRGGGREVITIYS
Assay: co-IP; mouse hippocampal tissue homogenate (500 ug total protein) incubated with 2 ug anti-KCC2 antibody in immunoprecipitation buffer at 4 °C for 12 h, Protein A agarose overnight at 4 °C, acidic elution, immunoblotting

Row | Substance | binding
1 | low-density lipoprotein receptor (LDLR) (from UniProt P35951 22-862) | binds
2 | LDLR-related protein 1 (LRP1) (from UniProt Q91ZX7 20-4545) (receptor) | binds
